This note sets out measurements from the supplement of paper PMC8426693.

The list shows a part of the results.

One experiment concerns SARS-CoV-2 5_SL7 RNA. The experiment can be described thus: NMR binding call after quantification (hit when 2 of 3 NMR criteria are met) (binary (1 = binding, 0 = not binding)); higher = binding. Conditions: RNA concentration 10 µM; fragment concentration 200 µM; 293 K.
Molecule `CC(Cc1ccc(Br)cc1)C(N)=O` (stereo not given) gave an NMR binding call of 0.
Still for that read-out and setting: then `CCC(CO)NC(=O)Nc1ccc(Cl)cc1` (stereo not given), with 0; and `CCC(C)NC(=O)c1ccccc1N` (stereo not given), with 0; and `COc1ccc(C(N)C(=O)O)cc1` (stereo not given), with 0.
Molecule `Cc1ccsc1CNC(C)(C)CO` gave an NMR binding call of 0.
The molecule `COc1ccc(NC(=O)Nc2cccs2)cn1` yielded an NMR binding call of 0.
The same measure, in the same setting: then `COc1ccc(C)cc1NC(=O)Nn1cnnc1`, with 0; and `CC(C)c1ccc(NC(=O)N2CCOCC2)cc1`, with 0; and `CCCC(=O)NCc1nc2ccccc2[nH]1`, with 0.
`O=C(Nc1nc2ccccc2[nH]1)C1CCCCC1`: the NMR binding call came out at 0.
In turn, `NNC(=O)c1ccc(OCc2ccccc2)cc1` had an NMR binding call of 0.
Still for that read-out and setting: then `Cc1ccc(Nc2ncnc3[nH]ncc23)cc1`, with 0; and `COc1cccc(C(=O)Nc2ccccc2F)c1`, with 0; and `Cc1cc(C(=O)NCC2CCOC2)on1` (stereo not given), with 0.
Same read-out and setting: then `CC(=O)N1CCC(C#N)CC1`, with 0; and `Oc1ccc(CN2CCc3ccccc3C2)cc1`, with 0; and `O=C(Nc1ccc2ncccc2c1)c1ccccc1`, with 0.
`CC(C)(O)CN1CCC(N)C1` (stereo not given): the NMR binding call stood at 0.
The molecule `CC(C)c1ncc(Cl)c(C(N)=O)n1` registered an NMR binding call of 0.
Still for that read-out and setting: then `CC(=O)Nc1ccc(OC(=O)N2CCCC2)cc1`, with 0; and `Cc1ccccc1-n1cc(C(=O)O)nn1`, with 0; and `COCC(=O)NCc1ccc(C)cc1`, with 0.
Take `CC(C)C(=O)NCc1nc2ccccc2[nH]1`: the NMR binding call stood at 0.
In the case of `CC(C)NC(=O)CN1CCCNCC1`, the NMR binding call is 0.
The molecule `CCN(CC)C(=O)c1cc(C)no1` registered an NMR binding call of 0.
The same measure, in the same setting: then `CC(O)C(=O)NCc1ccccn1` (stereo not given), with 0; and `CC(=O)Nc1cc(C)n[nH]1`, with 0; and `CS(=O)(=O)NC1CCCC1`, with 0.
`CN1CCN(C(=O)C2CCCN2)CC1` (stereo not given) came in with an NMR binding call of 0.
Molecule `c1csc(-c2nnc[nH]2)n1` had an NMR binding call of 0.
Same read-out and setting: to `Cc1ccccc1CC(N)=O` belongs 0.
Molecule `CN(c1ccc(C(N)=O)nn1)C1CCC1` returned an NMR binding call of 0.
The molecule `Cc1cc(C(=O)NC(C)C)on1` gave an NMR binding call of 0.
On the same count and under the same terms, then `CC(C)COc1ccc(C(=O)N2CCCC2)cc1`, with 0; and `Cc1ccc(OCC(=O)N2CCOCC2)c(C)c1`, with 0; and `COCC(=O)NCc1ccccc1`, with 0.
The same measure, in the same setting: then `CN(C(=O)C1CC1(C)C)c1cccnc1` (stereo not given), with 0.
On the same count and under the same terms, to `CCOc1ccc(C(=O)Nc2cc(C)on2)cc1` belongs 0; to `CCn1ccc(CNC)n1`, 0; to `Cc1nc(CN2CC(F)CC2CN)cs1` (stereo not given), 0.

The next experiment deals with SARS-CoV-2 5_SL8 RNA. Described as above. Conditions: RNA concentration 10 µM; fragment concentration 200 µM; 293 K.
Regarding `CC(Cc1ccc(Br)cc1)C(N)=O` (stereo not given), the NMR binding call was found to be 0.
In turn, `CCC(CO)NC(=O)Nc1ccc(Cl)cc1` (stereo not given) returned an NMR binding call of 0.
The same measure, in the same setting: to `CCC(C)NC(=O)c1ccccc1N` (stereo not given) belongs 0; to `COc1ccc(C(N)C(=O)O)cc1` (stereo not given), 0.
Still for that read-out and setting: to `Cc1ccsc1CNC(C)(C)CO` belongs 0.
`COc1ccc(NC(=O)Nc2cccs2)cn1` had an NMR binding call of 0.
Still for that read-out and setting: then `COc1ccc(C)cc1NC(=O)Nn1cnnc1`, with 0; and `CC(C)c1ccc(NC(=O)N2CCOCC2)cc1`, with 0; and `CCCC(=O)NCc1nc2ccccc2[nH]1`, with 0.
Molecule `O=C(Nc1nc2ccccc2[nH]1)C1CCCCC1` displayed an NMR binding call of 0.
The same measure, in the same setting: then `NNC(=O)c1ccc(OCc2ccccc2)cc1`, with 0.
As for `Cc1ccc(Nc2ncnc3[nH]ncc23)cc1`, the NMR binding call is 0.
The molecule `COc1cccc(C(=O)Nc2ccccc2F)c1` gave an NMR binding call of 0.
Molecule `Cc1cc(C(=O)NCC2CCOC2)on1` (stereo not given) had an NMR binding call of 0.
`CC(=O)N1CCC(C#N)CC1` displayed an NMR binding call of 0.
The same measure, in the same setting: then `Oc1ccc(CN2CCc3ccccc3C2)cc1`, with 0; and `O=C(Nc1ccc2ncccc2c1)c1ccccc1`, with 1.
Take `CC(C)(O)CN1CCC(N)C1` (stereo not given): the NMR binding call was determined as 0.
In the case of `CC(C)c1ncc(Cl)c(C(N)=O)n1`, the NMR binding call worked out at 0.
Turning to `CC(=O)Nc1ccc(OC(=O)N2CCCC2)cc1`, the NMR binding call was 0.
The same measure, in the same setting: then `Cc1ccccc1-n1cc(C(=O)O)nn1`, with 0; and `COCC(=O)NCc1ccc(C)cc1`, with 0; and `CC(C)C(=O)NCc1nc2ccccc2[nH]1`, with 0.
Same read-out and setting: then `CC(C)NC(=O)CN1CCCNCC1`, with 0; and `CCN(CC)C(=O)c1cc(C)no1`, with 0; and `CC(O)C(=O)NCc1ccccn1` (stereo not given), with 0.
Still for that read-out and setting: to `CC(=O)Nc1cc(C)n[nH]1` belongs 0.
Molecule `CS(=O)(=O)NC1CCCC1` came in with an NMR binding call of 0.
Same read-out and setting: to `CN1CCN(C(=O)C2CCCN2)CC1` (stereo not given) belongs 0; to `c1csc(-c2nnc[nH]2)n1`, 0; to `Cc1ccccc1CC(N)=O`, 0.
Same read-out and setting: to `CN(c1ccc(C(N)=O)nn1)C1CCC1` belongs 0; to `Cc1cc(C(=O)NC(C)C)on1`, 0.
As to `CC(C)COc1ccc(C(=O)N2CCCC2)cc1`, the NMR binding call is 0.
Molecule `Cc1ccc(OCC(=O)N2CCOCC2)c(C)c1` came in with an NMR binding call of 0.
Molecule `COCC(=O)NCc1ccccc1` yielded an NMR binding call of 0.
On the same count and under the same terms, then `CN(C(=O)C1CC1(C)C)c1cccnc1` (stereo not given), with 0; and `CCOc1ccc(C(=O)Nc2cc(C)on2)cc1`, with 0.
`CCn1ccc(CNC)n1` returned an NMR binding call of 0.
`Cc1nc(CN2CC(F)CC2CN)cs1` (stereo not given) showed an NMR binding call of 0.
